In paper PMC10924340:
These are yes or no findings as the source states them, for the method shown. Binding seen in cells or lysates may run through a third protein. Some entries that bind do so weakly or less than the wild type. Tags and fused reporters may be left off the sequences shown.

Biological target: T1, Flag-LATS2 (large tumor suppressor kinase 2) (UniProt Q9NRM7)
T1 sequence: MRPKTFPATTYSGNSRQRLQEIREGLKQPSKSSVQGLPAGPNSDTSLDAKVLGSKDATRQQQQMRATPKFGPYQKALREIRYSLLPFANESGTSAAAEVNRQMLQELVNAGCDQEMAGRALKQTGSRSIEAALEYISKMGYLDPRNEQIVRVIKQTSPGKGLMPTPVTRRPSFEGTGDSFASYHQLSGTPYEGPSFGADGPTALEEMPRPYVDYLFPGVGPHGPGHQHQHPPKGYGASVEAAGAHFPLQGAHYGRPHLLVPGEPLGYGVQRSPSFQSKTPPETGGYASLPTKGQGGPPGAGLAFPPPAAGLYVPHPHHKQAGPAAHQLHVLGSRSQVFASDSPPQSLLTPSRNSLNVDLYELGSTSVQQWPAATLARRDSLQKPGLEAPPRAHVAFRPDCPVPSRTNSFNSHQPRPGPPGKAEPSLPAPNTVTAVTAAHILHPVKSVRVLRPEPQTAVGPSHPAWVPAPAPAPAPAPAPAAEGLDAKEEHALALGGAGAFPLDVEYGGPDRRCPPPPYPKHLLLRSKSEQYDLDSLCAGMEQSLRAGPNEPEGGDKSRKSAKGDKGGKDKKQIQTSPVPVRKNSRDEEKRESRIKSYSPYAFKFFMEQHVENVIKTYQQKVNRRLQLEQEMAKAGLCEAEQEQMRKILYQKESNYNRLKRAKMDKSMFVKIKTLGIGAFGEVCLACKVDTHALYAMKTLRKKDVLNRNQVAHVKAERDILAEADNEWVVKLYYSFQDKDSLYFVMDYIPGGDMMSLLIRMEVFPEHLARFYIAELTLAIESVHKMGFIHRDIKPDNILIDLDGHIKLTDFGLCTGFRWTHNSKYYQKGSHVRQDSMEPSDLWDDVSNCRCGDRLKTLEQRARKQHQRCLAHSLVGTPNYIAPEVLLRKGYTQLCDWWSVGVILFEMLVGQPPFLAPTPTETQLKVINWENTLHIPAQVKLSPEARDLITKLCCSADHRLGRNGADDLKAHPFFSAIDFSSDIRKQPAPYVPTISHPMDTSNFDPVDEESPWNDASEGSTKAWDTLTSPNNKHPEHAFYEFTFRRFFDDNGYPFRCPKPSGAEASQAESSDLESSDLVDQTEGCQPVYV
Assay: co-IP; cells transfected, lysed in IP buffer after 48 h, mixed with pre-incubated beads for 16 h, washed three times, protein on beads denatured and western blotted

binding: binds
B1: SIAH2 (seven in absentia homolog 2), E3 ligase (enzyme, UniProt O43255 1-324)
chain: MSRPSSTGPSANKPCSKQPPPQPQHTPSPAAPPAAATISAAGPGSSAVPAAAAVISGPGGGGGAGPVSPQHHELTSLFECPVCFDYVLPPILQCQAGHLVCNQCRQKLSCCPTCRGALTPSIRNLAMEKVASAVLFPCKYATTGCSLTLHHTEKPEHEDICEYRPYSCPCPGASCKWQGSLEAVMSHLMHAHKSITTLQGEDIVFLATDINLPGAVDWVMMQSCFGHHFMLVLEKQEKYEGHQQFFAIVLLIGTRKQAENFAYRLELNGNRRRLTWEATPRSIHDGVAAAIMNSDCLVFDTAIAHLFADNGNLGINVTISTCCP
